# Measured values reported in patent US10967076B2, “Use of non-labeled sugars and detection by MRI for assessing tissue perfusion and metabolism” (The Johns Hopkins University, priority 2010, dated 2021).
# Assay: glucoCEST (CEST MRI) of a D-glucose phantom in PBS buffer
# Assay type: physicochemical
# Conditions: PBS buffer pH=7.3, T=37° C., 9.4 Tesla, B1 3.6 μT, saturation time 3.5 seconds
smiles,measurement,value
O=C[C@H](O)[C@@H](O)[C@H](O)[C@H](O)CO [D-glucose],detection sensitivity,about 0.5 % of water signal per mM
